These are yes or no findings as the source states them, for the method shown. For part of these data: In cells and extracts the contact can be indirect. Some binding calls cover weakened binding; strength is not graded here. For part of these data: Sequences can lack the tags named with a protein.
Tests used:
[1] = biological target: SIRT1, endogenous in HeLa-CHFR cells (human (endogenous in HeLa)) (UniProt Q96EB6); test: co-IP; HeLa-CHFR stable cell lysates immunoprecipitated with anti-CHFR or anti-SIRT1 (controls: preimmune serum or IgG), immunoblot; in Fig. 4C cells were mock-treated or treated with 1 mM H2O2 for 6 h before the anti-SIRT1 IP
GST-SIRT1 = GST-SIRT1 (UniProt Q96EB6); test: pull-down; GST-SIRT1 (1 μg) and His-CHFR (1 μg) incubated with Glutathione Sepharose 4 Fast Flow for 1 h at 4 °C; immunoblot with anti-CHFR and anti-GST; both purified
[2] = biological target: SIRT1 (transiently transfected conditions, Supplementary Fig. S1B) (UniProt Q96EB6); test: co-IP; transiently transfected conditions with the CHFR-I306A mutant, with or without H2O2 treatment (Supplementary Fig. S1B)

Amino acid sequences for entries named in this document (tags omitted). A change or cut given only in a name is not applied to a line headed by its entry.
UniProt Q96EB6: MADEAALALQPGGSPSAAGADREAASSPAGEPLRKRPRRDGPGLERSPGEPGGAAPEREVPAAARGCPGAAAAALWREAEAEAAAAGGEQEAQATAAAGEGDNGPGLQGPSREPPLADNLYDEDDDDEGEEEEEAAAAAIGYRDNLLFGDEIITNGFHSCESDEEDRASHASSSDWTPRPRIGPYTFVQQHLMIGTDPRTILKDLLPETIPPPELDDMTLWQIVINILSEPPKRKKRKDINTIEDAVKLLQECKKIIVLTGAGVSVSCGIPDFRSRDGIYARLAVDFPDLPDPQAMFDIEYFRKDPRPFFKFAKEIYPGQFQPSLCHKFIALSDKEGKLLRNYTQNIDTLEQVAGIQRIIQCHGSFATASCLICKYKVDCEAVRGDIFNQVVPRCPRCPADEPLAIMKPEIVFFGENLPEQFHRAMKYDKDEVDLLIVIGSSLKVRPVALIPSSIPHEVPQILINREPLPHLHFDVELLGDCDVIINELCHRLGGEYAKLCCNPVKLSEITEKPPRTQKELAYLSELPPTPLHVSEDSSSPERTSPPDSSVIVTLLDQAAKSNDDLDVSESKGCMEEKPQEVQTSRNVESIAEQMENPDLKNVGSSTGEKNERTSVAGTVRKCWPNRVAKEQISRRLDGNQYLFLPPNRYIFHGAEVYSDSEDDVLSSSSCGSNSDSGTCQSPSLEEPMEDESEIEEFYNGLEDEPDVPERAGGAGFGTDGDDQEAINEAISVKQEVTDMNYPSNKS

B1: CHFR in HeLa-CHFR stable cells (enzyme, UniProt Q96EP1 1-664)
chain: MERPEEGKQSPPPQPWGRLLRLGAEEGEPHVLLRKREWTIGRRRGCDLSFPSNKLVSGDHCRIVVDEKSGQVTLEDTSTSGTVINKLKVVKKQTCPLQTGDVIYLVYRKNEPEHNVAYLYESLSEKQGMTQESFEANKENVFHGTKDTSGAGAGRGADPRVPPSSPATQVCFEEPQPSTSTSDLFPTASASSTEPSPAGRERSSSCGSGGGGISPKGSGPSVASDEVSSFASALPDRKTASFSSLEPQDQEDLEPVKKKMRGDGDLDLNGQLLVAQPRRNAQTVHEDVRAAAGKPDKMEETLTCIICQDLLHDCVSLQPCMHTFCAACYSGWMERSSLCPTCRCPVERICKNHILNNLVEAYLIQHPDKSRSEEDVQSMDARNKITQDMLQPKVRRSFSDEEGSSEDLLELSDVDSESSDISQPYVVCRQCPEYRRQAAQPPHCPAPEGEPGAPQALGDAPSTSVSLTTAVQDYVCPLQGSHALCTCCFQPMPDRRAEREQDPRVAPQQCAVCLQPFCHLYWGCTRTGCYGCLAPFCELNLGDKCLDGVLNNNSYESDILKNYLATRGLTWKNMLTESLVALQRGVFLLSDYRVTGDTVLCYCCGLRSFRELTYQYRQNIPASELPVAVTSRPDCYWGRNCRTQVKAHHAMKFNHICEQTRFKN
B1 was tested, and the binding [1] was “binds”.

B2: His-CHFR (enzyme, UniProt Q96EP1 1-664)
chain: MERPEEGKQSPPPQPWGRLLRLGAEEGEPHVLLRKREWTIGRRRGCDLSFPSNKLVSGDHCRIVVDEKSGQVTLEDTSTSGTVINKLKVVKKQTCPLQTGDVIYLVYRKNEPEHNVAYLYESLSEKQGMTQESFEANKENVFHGTKDTSGAGAGRGADPRVPPSSPATQVCFEEPQPSTSTSDLFPTASASSTEPSPAGRERSSSCGSGGGGISPKGSGPSVASDEVSSFASALPDRKTASFSSLEPQDQEDLEPVKKKMRGDGDLDLNGQLLVAQPRRNAQTVHEDVRAAAGKPDKMEETLTCIICQDLLHDCVSLQPCMHTFCAACYSGWMERSSLCPTCRCPVERICKNHILNNLVEAYLIQHPDKSRSEEDVQSMDARNKITQDMLQPKVRRSFSDEEGSSEDLLELSDVDSESSDISQPYVVCRQCPEYRRQAAQPPHCPAPEGEPGAPQALGDAPSTSVSLTTAVQDYVCPLQGSHALCTCCFQPMPDRRAEREQDPRVAPQQCAVCLQPFCHLYWGCTRTGCYGCLAPFCELNLGDKCLDGVLNNNSYESDILKNYLATRGLTWKNMLTESLVALQRGVFLLSDYRVTGDTVLCYCCGLRSFRELTYQYRQNIPASELPVAVTSRPDCYWGRNCRTQVKAHHAMKFNHICEQTRFKN
B2 was tested, and the binding (GST-SIRT1) was “binds”.

B3: CHFR-I306A (enzyme, UniProt Q96EP1 1-664)
chain: MERPEEGKQSPPPQPWGRLLRLGAEEGEPHVLLRKREWTIGRRRGCDLSFPSNKLVSGDHCRIVVDEKSGQVTLEDTSTSGTVINKLKVVKKQTCPLQTGDVIYLVYRKNEPEHNVAYLYESLSEKQGMTQESFEANKENVFHGTKDTSGAGAGRGADPRVPPSSPATQVCFEEPQPSTSTSDLFPTASASSTEPSPAGRERSSSCGSGGGGISPKGSGPSVASDEVSSFASALPDRKTASFSSLEPQDQEDLEPVKKKMRGDGDLDLNGQLLVAQPRRNAQTVHEDVRAAAGKPDKMEETLTCIACQDLLHDCVSLQPCMHTFCAACYSGWMERSSLCPTCRCPVERICKNHILNNLVEAYLIQHPDKSRSEEDVQSMDARNKITQDMLQPKVRRSFSDEEGSSEDLLELSDVDSESSDISQPYVVCRQCPEYRRQAAQPPHCPAPEGEPGAPQALGDAPSTSVSLTTAVQDYVCPLQGSHALCTCCFQPMPDRRAEREQDPRVAPQQCAVCLQPFCHLYWGCTRTGCYGCLAPFCELNLGDKCLDGVLNNNSYESDILKNYLATRGLTWKNMLTESLVALQRGVFLLSDYRVTGDTVLCYCCGLRSFRELTYQYRQNIPASELPVAVTSRPDCYWGRNCRTQVKAHHAMKFNHICEQTRFKN
For B3, the binding [2] was “binds”.
